Assay [1] addresses Myc-tagged Smad3 (UniProt P84022). Briefly: co-IP; HEK293T cells co-transfected; lysis buffer 50 mM Tris pH 8.0, 150 mM NaCl, 5 mM EDTA, 50 mM NaF, 0.1% NP-40; IP with anti-Myc antibody, protein A or G Sepharose, 2 h at 4°C; western blotting; for p300 with or without TGF-β1 (2 ng/ml) and with or without FLAG-FOSL2. (Immunoblotting shows a protein as a band on a membrane.)
In assay [2] the target is endogenous Smad3 (human (endogenous in A549)) (UniProt P84022). As to the kind of experiment: co-IP; A549 cells transfected with siFOSL2 or control, treated with TGF-β1 (2 ng/ml) as indicated; precipitating antibody not told.
A further assay concerns the target GST-Smad3 (UniProt P84022). As to the kind of experiment: pull-down; GST-Smad3 or GST alone incubated with precleared whole-cell lysate of HEK 293T cells overexpressing Flag-FOSL2, glutathione Sepharose beads, 2 hours at 4°C, five washes with GST-binding buffer; immunoblotting; only the target purified.
In assay [3] the target is Myc-tagged Smad3 (UniProt P84022). Briefly: co-IP; HEK293T cells co-transfected; lysis buffer 50 mM Tris pH 8.0, 150 mM NaCl, 5 mM EDTA, 50 mM NaF, 0.1% NP-40; IP with anti-Myc antibody, protein A or G Sepharose, 2 h at 4°C; western blotting; for p300 with or without TGF-β1 (2 ng/ml) and with or without FLAG-FOSL2. This is another data set of the same source.
For assay [4], the target named is endogenous Smad3 (human (endogenous in A549)) (UniProt P84022). Briefly: co-IP; endogenous proteins in A549 cells with TGF-β1 (2 ng/ml) treatment; IP with anti-Smad3 antibody or anti-IgG antibody; western blotting.

By UniProt entry, the sequences of proteins in these tests, tags left out.
UniProt P84022: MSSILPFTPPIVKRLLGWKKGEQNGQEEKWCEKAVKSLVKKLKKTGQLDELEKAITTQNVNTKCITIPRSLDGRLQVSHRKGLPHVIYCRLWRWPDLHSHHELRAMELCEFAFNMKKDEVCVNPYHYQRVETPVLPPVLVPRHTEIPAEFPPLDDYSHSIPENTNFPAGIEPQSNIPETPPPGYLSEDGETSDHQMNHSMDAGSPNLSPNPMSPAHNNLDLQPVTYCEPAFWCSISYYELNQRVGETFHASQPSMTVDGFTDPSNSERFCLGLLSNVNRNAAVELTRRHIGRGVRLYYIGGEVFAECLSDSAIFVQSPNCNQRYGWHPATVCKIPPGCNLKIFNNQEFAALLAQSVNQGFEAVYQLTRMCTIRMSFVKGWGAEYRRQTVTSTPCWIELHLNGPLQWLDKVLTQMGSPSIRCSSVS
UniProt Q09472: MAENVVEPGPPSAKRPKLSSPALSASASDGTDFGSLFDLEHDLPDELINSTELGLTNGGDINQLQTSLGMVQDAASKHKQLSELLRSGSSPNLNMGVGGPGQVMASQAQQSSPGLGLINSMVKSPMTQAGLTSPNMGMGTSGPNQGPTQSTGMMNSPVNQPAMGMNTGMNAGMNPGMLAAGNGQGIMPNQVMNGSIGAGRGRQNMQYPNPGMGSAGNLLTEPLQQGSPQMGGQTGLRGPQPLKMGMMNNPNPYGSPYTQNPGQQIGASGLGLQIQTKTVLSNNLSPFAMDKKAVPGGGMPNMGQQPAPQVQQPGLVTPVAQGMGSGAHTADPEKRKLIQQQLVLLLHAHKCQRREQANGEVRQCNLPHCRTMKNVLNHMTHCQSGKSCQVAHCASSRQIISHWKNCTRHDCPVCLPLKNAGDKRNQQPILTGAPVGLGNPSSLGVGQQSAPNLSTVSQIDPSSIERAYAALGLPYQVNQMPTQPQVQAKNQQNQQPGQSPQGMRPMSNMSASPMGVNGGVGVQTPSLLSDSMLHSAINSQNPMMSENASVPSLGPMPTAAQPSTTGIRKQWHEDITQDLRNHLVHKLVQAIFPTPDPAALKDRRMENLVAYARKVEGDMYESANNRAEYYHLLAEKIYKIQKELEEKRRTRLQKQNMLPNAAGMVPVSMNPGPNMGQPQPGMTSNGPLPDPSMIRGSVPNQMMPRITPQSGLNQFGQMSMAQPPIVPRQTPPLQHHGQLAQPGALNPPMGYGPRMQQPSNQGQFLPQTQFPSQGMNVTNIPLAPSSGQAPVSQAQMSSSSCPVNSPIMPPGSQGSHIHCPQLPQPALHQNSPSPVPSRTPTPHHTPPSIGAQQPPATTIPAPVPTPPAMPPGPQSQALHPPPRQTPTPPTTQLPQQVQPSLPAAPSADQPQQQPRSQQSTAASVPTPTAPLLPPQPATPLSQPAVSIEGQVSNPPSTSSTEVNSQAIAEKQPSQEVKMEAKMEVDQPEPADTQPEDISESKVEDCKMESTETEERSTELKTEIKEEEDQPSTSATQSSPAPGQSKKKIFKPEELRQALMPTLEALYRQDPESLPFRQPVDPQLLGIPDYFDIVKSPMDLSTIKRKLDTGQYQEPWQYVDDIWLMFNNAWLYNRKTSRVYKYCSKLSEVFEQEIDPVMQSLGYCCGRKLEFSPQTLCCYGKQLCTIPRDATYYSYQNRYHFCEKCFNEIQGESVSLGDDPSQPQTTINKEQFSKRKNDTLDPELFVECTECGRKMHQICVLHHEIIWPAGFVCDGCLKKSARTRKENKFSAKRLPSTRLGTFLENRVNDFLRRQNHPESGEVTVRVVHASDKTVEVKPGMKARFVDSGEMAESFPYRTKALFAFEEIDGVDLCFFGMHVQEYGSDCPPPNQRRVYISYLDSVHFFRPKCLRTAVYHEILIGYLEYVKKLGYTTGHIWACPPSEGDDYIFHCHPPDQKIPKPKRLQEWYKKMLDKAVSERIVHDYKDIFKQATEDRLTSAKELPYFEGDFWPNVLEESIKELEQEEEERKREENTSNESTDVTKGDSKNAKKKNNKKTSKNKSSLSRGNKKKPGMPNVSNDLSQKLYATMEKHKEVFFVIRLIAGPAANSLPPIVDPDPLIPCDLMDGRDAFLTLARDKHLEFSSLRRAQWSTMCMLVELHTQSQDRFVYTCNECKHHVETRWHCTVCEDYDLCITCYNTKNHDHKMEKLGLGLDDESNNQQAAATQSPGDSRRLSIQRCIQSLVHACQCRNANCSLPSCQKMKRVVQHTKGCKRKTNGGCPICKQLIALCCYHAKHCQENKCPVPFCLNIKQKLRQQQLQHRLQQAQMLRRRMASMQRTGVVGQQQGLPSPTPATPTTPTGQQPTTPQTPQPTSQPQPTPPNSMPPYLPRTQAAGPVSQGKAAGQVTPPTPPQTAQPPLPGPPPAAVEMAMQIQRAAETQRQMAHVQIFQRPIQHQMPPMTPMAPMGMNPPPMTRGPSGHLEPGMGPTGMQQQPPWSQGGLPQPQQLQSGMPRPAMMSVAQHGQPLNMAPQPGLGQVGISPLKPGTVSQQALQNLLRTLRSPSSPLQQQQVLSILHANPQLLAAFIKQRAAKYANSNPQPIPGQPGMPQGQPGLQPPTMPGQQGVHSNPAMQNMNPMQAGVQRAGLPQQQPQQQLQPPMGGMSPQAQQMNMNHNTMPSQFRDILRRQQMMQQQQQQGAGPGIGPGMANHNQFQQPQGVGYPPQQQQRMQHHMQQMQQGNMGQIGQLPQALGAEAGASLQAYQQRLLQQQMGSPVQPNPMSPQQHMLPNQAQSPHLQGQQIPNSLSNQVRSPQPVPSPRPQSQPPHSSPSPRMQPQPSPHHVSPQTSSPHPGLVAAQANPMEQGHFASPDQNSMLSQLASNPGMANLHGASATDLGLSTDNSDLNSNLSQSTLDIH

Our source for the binding values is paper PMC4223012.

Where two headings read alike, the source gives them in different places. Results are given in words; binding and its absence hold for the method and conditions named. Binding seen in cells or lysates may run through a third protein. Some results given as binding are weak or reduced against the parent protein; the word gives no strength. For some assays here: Where a sequence is shown, tags or fusion partners need not be part of it.

Regarding “HA-tagged p300 (from UniProt Q09472 1-2414)”, the binding entry in the assay with Myc-tagged Smad3 [1] was “binds”.
As for “p300 in A549 cells (from UniProt Q09472 1-2414)”, the binding entry in assay [2] is on record as “binds”.

B1: FLAG-tagged FOSL2 (protein, UniProt P15408 1-326)
chain: MYQDYPGNFDTSSRGSSGSPAHAESYSSGGGGQQKFRVDMPGSGSAFIPTINAITTSQDLQWMVQPTVITSMSNPYPRSHPYSPLPGLASVPGHMALPRPGVIKTIGTTVGRRRRDEQLSPEEEEKRRIRRERNKLAAAKCRNRRRELTEKLQAETEELEEEKSGLQKEIAELQKEKEKLEFMLVAHGPVCKISPEERRSPPAPGLQPMRSGGGSVGAVVVKQEPLEEDSPSSSSAGLDKAQRSVIKPISIAGGFYGEEPLHTPIVVTSTPAVTPGTSNLVFTYPSVLEQESPASPSESCSKAHRRSSSSGDQSSDSLNSPTLLAL
For B1, the binding entry with GST-Smad3 and with Myc-tagged Smad3 [3] was “binds” in each case.

B2: endogenous FOSL2 (protein, UniProt P15408 1-326)
chain: MYQDYPGNFDTSSRGSSGSPAHAESYSSGGGGQQKFRVDMPGSGSAFIPTINAITTSQDLQWMVQPTVITSMSNPYPRSHPYSPLPGLASVPGHMALPRPGVIKTIGTTVGRRRRDEQLSPEEEEKRRIRRERNKLAAAKCRNRRRELTEKLQAETEELEEEKSGLQKEIAELQKEKEKLEFMLVAHGPVCKISPEERRSPPAPGLQPMRSGGGSVGAVVVKQEPLEEDSPSSSSAGLDKAQRSVIKPISIAGGFYGEEPLHTPIVVTSTPAVTPGTSNLVFTYPSVLEQESPASPSESCSKAHRRSSSSGDQSSDSLNSPTLLAL
As to B2, in assay [4], the binding entry is given as “binds”.
